From patent US20080096967A1, “Formulations for Injection of Catecholic Butanes, Including Ndga Compounds, Into Animals” (priority 2005, published 2008)
Further values from the same series stand in other lists.

Test: Solubility and room temperature stability of M4N in modified cyclodextrin / PEG formulations (visual inspection)
Assay type: physicochemical
Experimental: A 100 mL solution of 40% HP-β-CD for use as a solubilizing agent and/or excipient was made as follows: 65 mL of WFI were placed in a glass beaker containing a stir bar. The beaker was placed on a magnetic plate, and the stir bar was set to stir at medium speed. About forty (40) grams of HP-β-CD were added slowly to the stirring WFI, using a spatula to direct the HP-β-CD to the center of the beaker so as to prevent HP-β-CD crystals from sticking to the beaker wall. The HP-β-CD solution was stirred for about 24 hr or until the HP-β-CD was dissolved completely upon visual inspection. The resulting solution measured about 93 mL. About 7 mL of WFI was added to this resulting solution to obtain 100 mL, producing a final solution of about 40% HP-β-CD. The final solution was stirred for about 1 hr, stored at room temperature, and was protected from light. This method of making the modified cyclodextrin solution may be scaled up or down to obtain the desired volume or concentration. Other concentrations or other modified cyclodextrin solutions may be similarly made, for example, by substituting HP-β-CD with other modified cyclodextrins, adjusted for the appropriate concentrations in the process described above.
A 10 mL solution of M4N at a concentration of about 10 mg/mL in 40% HP-β-CD was made as follows. About 10 mL of the 40% HP-β-CD solution were added to a glass beaker containing a stir bar. The beaker was placed on a magnetic plate and the stir bar was set to stir at medium speed. About […] of M4N were slowly added to the 40% HP-β-CD in the center of the beaker with the aid of a spatula. The M4N/40% HP-β-CD mixture was stirred for 2 hr or until all M4N was uniformly suspended without any clumps being present. The M4N/40% HP-β-CD mixture was optionally heated at 80° C. for about 30 min. (or longer if a larger volume of solution was desired, for example, 1 hr at 80° C. for 100 mL of the M4N/HP-β-CD mixture), or longer as needed to ensure complete dissolution of M4N. […] The final M4N/40% HP-β-CD solution was stored at room temperature and was kept protected from light. This process may be scaled up or down to obtain the requisite volume or concentration of M4N. Formulations containing M4N in other cyclodextrin solutions may be similarly made, such as, for example, by substituting HP-β-CD in the process described above with other cyclodextrins.
A 100 mL solution of M4N at a concentration of about 25 mg/mL in PEG 300 was made as follows. About 100 mL of PEG 300 were added to a glass beaker containing a stir bar. The beaker was placed on a magnetic plate and the stir bar was set to stir at medium speed. About 2.5 g of M4N were slowly added to the PEG 300 in the center of the beaker with the aid of a spatula to prevent M4N from sticking to the beaker wall. The M4N/PEG 300 mixture was stirred for 24 hr or until all M4N had dissolved or was uniformly suspended without any clumps being present. The M4N/PEG 300 mixture was optionally heated at about 60° C. for about 30 min. (or longer if a larger volume of solution was desired, for example, 1 hr at 60° C. for 500 mL of the M4N/PEG 300 mixture), or longer as needed to ensure complete dissolution of M4N. […] If crystals formed, the M4N/PEG 300 solution could be heated again at 60° C. for about 1 hr, with stirring, on a hot magnetic plate until all M4N was dissolved back in solution. The final M4N/PEG 300 solution was stored at room temperature and was kept protected from light. This process may be scaled up or down to obtain the requisite volume or concentration of M4N. Formulations containing M4N in other PEGs may be similarly made, such as, for example, by substituting PEG 300 in the process described above with PEG 400 or PEG 400 monolaurate. […]

[1] = 5% HP-β-CD, 12.5% PEG 300 (v/v), M4N 3.13 mg/mL
[2] = 6.7% HP-β-CD, 16.7% PEG 300 (v/v), M4N 4.17 mg/mL
[3] = 10% HP-β-CD, 25% PEG 300 (v/v), M4N 6.25 mg/mL
[4] = 10% HP-β-CD, 77% PEG 300 (v/v), M4N 19.3 mg/mL
[5] = 12.5% HP-β-CD, 50% PEG 300 (v/v), M4N 12.5 mg/mL
[6] = 12.5% HP-β-CD, 50% PEG 400 (v/v), M4N 12.5 mg/mL
[7] = 13% HP-β-CD, 67% PEG 300 (v/v), M4N 16.7 mg/mL
[8] = 15% HP-β-CD, 50% PEG 300 (v/v), M4N 12.5 mg/mL
[9] = 15% HP-β-CD, 50% PEG 400 (v/v), M4N 12.5 mg/mL
[10] = 20% HP-β-CD, 50% PEG 300 (v/v), M4N 12.5 mg/mL
[11] = 20% HP-β-CD, 50% PEG 400 (v/v), M4N 12.5 mg/mL
[12] = 23% HP-β-CD, 43% PEG 400 (v/v), M4N 12.9 mg/mL
[13] = 23% HP-β-CD, 43 PEG 300 (v/v), M4N 12.9 mg/mL
[14] = 27% HP-β-CD, 33% PEG 300 (v/v), M4N 13.3 mg/mL
[15] = 27% HP-β-CD, 33% PEG 400 (v/v), M4N 13.3 mg/mL
[16] = 27% HP-β-CD, 33% Tween ® 80 (v/v), M4N 13.3 mg/mL
[17] = 30% HP-β-CD, 25% PEG 400 (v/v), M4N 12.5 mg/mL
[18] = 32% HP-β-CD, 20% PEG 400 (v/v), M4N 10 mg/mL
[19] = 40% HP-β-CD, 5% PEG 400 (v/v), M4N 10 mg/mL
[20] = 50% HP-β-CD in saline, M4N 10 mg/mL
[21] = 50% HP-β-CD, 1.25% PVP (w/v), M4N 1 mg/mL

COc1ccc(C[C@@H](C)[C@@H](C)Cc2ccc(OC)c(OC)c2)cc1OC [Formulation M4N, meso-1,4-bis(3,4-dimethoxyphenyl)-2,3-dimethylbutane]
Dissolution After Rotation (1.50% β-CD, M4N 1 mg/mL): N
Dissolution After Rotation (1.50% β-CD, M4N 10 mg/mL): N
Dissolution After Cool Down [1]: Y
Dissolution After Rotation [1]: N
Dissolution After Rotation (5% γ-CD, M4N 1 mg/mL): N
Dissolution After Cool Down [2]: Y
Dissolution After Rotation [2]: N
Dissolution After Cool Down [3]: Y
Dissolution After Rotation [3]: N
Dissolution After Cool Down [4]: N
Dissolution After Rotation [4]: N
Dissolution After Cool Down [5]: Y
Dissolution After Rotation [5]: N
Dissolution After Cool Down [6]: Y
Dissolution After Rotation [6]: N
Stability at Room Temperature [6]: <1 days
Dissolution After Heating at X ° C. (12.5% HP-β-CD, 50% PEG 400 (v/v), M4N 12.5 mg/mL, 60°): Y at 60°
Dissolution After Cool Down [7]: N
Dissolution After Rotation [7]: N
Dissolution After Cool Down [8]: Y
Dissolution After Rotation [8]: N
Dissolution After Cool Down [9]: Y
Dissolution After Rotation [9]: N
Stability at Room Temperature [9]: <3 days
Dissolution After Heating at X ° C. (15% HP-β-CD, 50% PEG 400 (v/v), M4N 12.5 mg/mL, 60°): Y at 60°
Dissolution After Rotation (15% α-CD, M4N 1 mg/mL): N
Dissolution After Heating at X ° C. (15% α-CD, M4N 1 mg/mL, 90°): N at 90°
Dissolution After Rotation (15% α-CD, M4N 10 mg/mL): N
Dissolution After Rotation (15% α-CD, M4N 50 mg/mL): N
Dissolution After Rotation (15% α-CD, M4N 100 mg/mL): N
Dissolution After Rotation (20% HP-β-CD in saline, M4N 1 mg/mL): N
Dissolution After Rotation (20% HP-β-CD in saline, M4N 10 mg/mL): N
Dissolution After Rotation (20% HP-β-CD in saline, M4N 50 mg/mL): N
Dissolution After Cool Down [10]: Y
Dissolution After Rotation [10]: N
Dissolution After Cool Down [11]: Y
Dissolution After Rotation [11]: N
Stability at Room Temperature [11]: <7 days
Dissolution After Heating at X ° C. (20% HP-β-CD, 50% PEG 400 (v/v), M4N 12.5 mg/mL, 60°): Y at 60°
Dissolution After Cool Down (20% HP-β-CD, M4N 1 mg/mL): Y
Dissolution After Rotation (20% HP-β-CD, M4N 1 mg/mL): N
Dissolution After Rotation (20% HP-β-CD, M4N 10 mg/mL): N
Dissolution After Cool Down [12]: Y
Dissolution After Rotation [12]: N
Stability at Room Temperature [12]: >7 days
Dissolution After Heating at X ° C. (23% HP-β-CD, 43% PEG 400 (v/v), M4N 12.9 mg/mL, 60° C.): Y at 60 °C
Dissolution After Cool Down [13]: Y
Dissolution After Rotation [13]: N
Dissolution After Cool Down [14]: Y
Dissolution After Rotation [14]: N
Dissolution After Cool Down [15]: Y
Dissolution After Rotation [15]: N
Dissolution After Heating at X ° C. (27% HP-β-CD, 33% PEG 400 (v/v), M4N 13.3 mg/mL, 60°): Y at 60°
Dissolution After Cool Down [16]: N
Dissolution After Rotation [16]: N
Dissolution After Heating at X ° C. (27% HP-β-CD, 33% Tween ® 80 (v/v), M4N 13.3 mg/mL, 60°): Y at 60°
Dissolution After Cool Down [17]: Y
Dissolution After Rotation [17]: N
Dissolution After Cool Down (30% HP-β-CD, M4N 1 mg/mL): Y
Dissolution After Rotation (30% HP-β-CD, M4N 1 mg/mL): N
Dissolution After Cool Down (30% HP-β-CD, M4N 10 mg/mL): Y
Dissolution After Rotation (30% HP-β-CD, M4N 10 mg/mL): N
Dissolution After Rotation (30% HP-β-CD, M4N 20 mg/mL): N
Dissolution After Rotation (30% HP-β-CD, M4N 50 mg/mL): N
Dissolution After Rotation (30% HP-β-CD, M4N 100 mg/mL): N
Dissolution After Cool Down [18]: Y
Dissolution After Rotation [18]: N
Dissolution After Rotation (40% HP-β-CD, 1% PVP (w/v), M4N 1 mg/mL): N
Dissolution After Rotation (40% HP-β-CD, 1% PVP (w/v), M4N 10 mg/mL): N
Dissolution After Rotation (40% HP-β-CD, 2.5% PG (v/v), M4N 1 mg/mL): N
Dissolution After Rotation (40% HP-β-CD, 2.5% PG (v/v), M4N 10 mg/mL): N
Dissolution After Cool Down [19]: N
Dissolution After Rotation [19]: N
Dissolution After Heating at X ° C. (40% HP-β-CD, 5% PEG 400 (v/v), M4N 10 mg/mL, 60°): Y at 60°
Dissolution After Cool Down (40% HP-β-CD, M4N 1 mg/mL): Y
Dissolution After Rotation (40% HP-β-CD, M4N 1 mg/mL): N
Dissolution After Cool Down (40% HP-β-CD, M4N 10 mg/mL): Y
Dissolution After Rotation (40% HP-β-CD, M4N 10 mg/mL): N
Dissolution After Rotation (40% HP-β-CD, M4N 12 mg/mL): N
Dissolution After Rotation (40% HP-β-CD, M4N 14 mg/mL): N
Dissolution After Rotation (40% HP-β-CD, M4N 16 mg/mL): N
Dissolution After Rotation (40% HP-β-CD, M4N 20 mg/mL): N
Dissolution After Rotation (40% HP-β-CD, M4N 50 mg/mL): N
Dissolution After Rotation (40% HP-β-CD, M4N 100 mg/mL): N
Dissolution After Cool Down [20]: Y
Dissolution After Rotation [20]: N
Dissolution After Cool Down [21]: Y
Dissolution After Rotation [21]: N
Dissolution After Rotation (50% HP-β-CD, 1.25% PVP (w/v), M4N 10 mg/mL): N
Dissolution After Rotation (50% HP-β-CD, 1.25% PVP (w/v), M4N 50 mg/mL): N
Dissolution After Cool Down (50% HP-β-CD, M4N 1 mg/mL): Y
Dissolution After Rotation (50% HP-β-CD, M4N 1 mg/mL): N
Dissolution After Cool Down (50% HP-β-CD, M4N 10 mg/mL): Y
Dissolution After Rotation (50% HP-β-CD, M4N 10 mg/mL): N
Dissolution After Rotation (50% HP-β-CD, M4N 20 mg/mL): N
Dissolution After Rotation (50% HP-β-CD, M4N 50 mg/mL): N
Dissolution After Rotation (50% HP-β-CD, M4N 100 mg/mL): N
